Source: article PMC5780470, “Copper(I)-binding properties of de-coppering drugs for the treatment of Wilson disease. α-Lipoic acid as a potential anti-copper agent” (Scientific Reports, 2018)

Test system: Cox17 (Cu1Cox17, apo-Cox17_3S-S)
Test: ESI-MS demetallation of Cu1Cox17, hyperbolic fit
Format: binding
Settings: C50 for Cu(I) extraction from 1 uM Cu1Cox17, not a protein affinity; 50 uM DTT, 20 mM ammonium acetate, pH 7.3, 25 °C

SMILES | IC50 [mM]
O=C(O)CCCC[C@@H](S)CCS (racemic) [DLA, dihydrolipoic acid] | 0.498 ± 0.098
CCN(CC)C(=S)S [DETC, diethyl dithiocarbamate] | 0.00528 ± 0.00032
O=C(O)[C@@H](S)[C@@H](S)C(=O)O [DMS, meso-2,3-dimercaptosuccinate] | 0.00314 ± 0.00041
CC(C)(S)[C@@H](N)C(=O)O [PA, D-penicillamine] | 1.47 ± 0.33
NCCNCCNCCN [TR, trientine] | 1.08 ± 0.13
